Some of the results follow.

The chains behind the UniProt entries cited, without tags or fusion partners.
UniProt Q0JBA9, entry or part of it: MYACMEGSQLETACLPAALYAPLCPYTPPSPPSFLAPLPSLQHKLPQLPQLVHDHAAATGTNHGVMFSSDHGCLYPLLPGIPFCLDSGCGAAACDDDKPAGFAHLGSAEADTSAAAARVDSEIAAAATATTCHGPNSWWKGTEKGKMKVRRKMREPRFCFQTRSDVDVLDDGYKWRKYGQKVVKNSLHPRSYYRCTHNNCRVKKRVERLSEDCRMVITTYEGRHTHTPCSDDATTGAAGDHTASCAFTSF

For the test, the target named is OsWRKY34 (Oryza sativa, UniProt Q0JBA9 1-250). In words: protein-binding microarray (RPBM); PBS, 2% BSA, 51.3 ng/ul salmon testes DNA, 50 uM zinc acetate, 200 nM TF, 25 C, 1 h; high values mean tight binding. The conditions noted are these: protein: recombinant; tags: N-terminal polyhistidine and DsRed monomer fusion (pET32a); label: CyDye5-dUTP incorporated in the synthesized complementary strand; 3' TTTTT single-stranded linker to array surface; dsDNA, one strand shown. Put shortly: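 Binding signal is reported as fluorescence intensity per feature (arbitrary units) from an Axon 4000B scanner. Incubation used 200 nM of each Ni–NTA-purified, N-terminally polyhistidine- and DsRed-fused transcription factor from E. coli BL21-CodonPlus on a double-stranded custom Agilent array for 1 h at 25 °C, with 50 µM zinc acetate in the buffer, followed by washing.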
For “CGCATGCACGTACGTACCCGCCATTGCTGCTGCCAACCCTCGGAGTCACCTAGTGCAG”, the binding signal is 10700 fluorescence intensity (a.u.).

Turning to “AACTTGTTTCATCTATGCACTGGTACCAACACTCTTTGCACGGAGTCACCTAGTGCAG”, the binding signal was 9490 fluorescence intensity (a.u.).

“GATCCACCGCAACCTGCTGCTCACCACGCACGGCAACCTCCGGAGTCACCTAGTGCAG”: the binding signal was 9780 fluorescence intensity (a.u.).

Take “ACTAGTATACGTCATACACACATACACTTGGTTGCCTATTCGGAGTCACCTAGTGCAG”: the binding signal was 11500 fluorescence intensity (a.u.).

For the sequence “TTTTTTTTCTCTTCCGGCAATTCCGTAACAAGTTCATTTTCGGAGTCACCTAGTGCAG”, the binding signal was 9670 fluorescence intensity (a.u.).

With “AGTCTCTGTTCTCGTCTTCTTGTAGATCTGTCGATCTCTGCGGAGTCACCTAGTGCAG”, the binding signal was 9680 fluorescence intensity (a.u.).

On to “CTGCCTCACTCAATAATTTCAACAACCATTTGCTCGTGAACGGAGTCACCTAGTGCAG”, for which the binding signal was 9010 fluorescence intensity (a.u.).

With “CCCCATCCACCGCCGCCGCCACAGTTCACCGCTACCCACGCGGAGTCACCTAGTGCAG”, the binding signal is 9800 fluorescence intensity (a.u.).

Turning to “ATTCTCAAATACCACTCGGGCCCACATGTCAGCCTTACTCCGGAGTCACCTAGTGCAG”, the binding signal is 8200 fluorescence intensity (a.u.).

As to “TTAATTTGGTTGGATTGGGAGTTTCTTGTTCTCTCTTTAGCGGAGTCACCTAGTGCAG”, the binding signal was 10700 fluorescence intensity (a.u.).

As for “CTGGACTGCAGAATCCTTCTAATCATGTTGGCACAACTTTCGGAGTCACCTAGTGCAG”, the binding signal was 8300 fluorescence intensity (a.u.).

For the sequence “GATTCCCCAGCGCGCGAGCGAGCCCTTCCCGTCCTCGATGCGGAGTCACCTAGTGCAG”, the binding signal is 8590 fluorescence intensity (a.u.).

Take “CTCTAATTTGTTTTTGTTATTAGACTATATTTAATACTTTCGGAGTCACCTAGTGCAG”: the binding signal is 9030 fluorescence intensity (a.u.).

With “CTCGGGTTTGGTTGGTTGCTGGCACTGCACTACTGCTCGACGGAGTCACCTAGTGCAG”, the binding signal is 8590 fluorescence intensity (a.u.).

In the case of “AATCCCACAAAACTGCACTGTTAATTTTATCACGTGTCCCCGGAGTCACCTAGTGCAG”, the binding signal was 8140 fluorescence intensity (a.u.).

Take “CCAGCCCAAGTCGGGAAATGACACTTCCTTTTTTGTTTTTCGGAGTCACCTAGTGCAG”: the binding signal was 8280 fluorescence intensity (a.u.).

Turning to “TTAGCAAAAACATATCCTTTCTTGCCACACTACTAAGCCACGGAGTCACCTAGTGCAG”, the binding signal is 8160 fluorescence intensity (a.u.).

Take “TCCTTGATTTAATGTTGTCACCATTGACCTTATCACACATCGGAGTCACCTAGTGCAG”: the binding signal is 9330 fluorescence intensity (a.u.).

In the case of “ACATATGATCAGATTAGGATATCGGATGGGTGGGCGCAAACGGAGTCACCTAGTGCAG”, the binding signal is 11500 fluorescence intensity (a.u.).

“CCCCTTCGAAATAAGCCACCACCGCCACTTCTCCTTGCCGCGGAGTCACCTAGTGCAG”: the binding signal is 8720 fluorescence intensity (a.u.).

Turning to “CTCCACTAATCCTACCAATTAACGAGTCGTACTCAATAATCGGAGTCACCTAGTGCAG”, the binding signal is 8130 fluorescence intensity (a.u.).

Turning to “AGGTCTAGTATTTCTTTTGGGATTATCTTTTGCAATAGAACGGAGTCACCTAGTGCAG”, the binding signal was 9390 fluorescence intensity (a.u.).

With “TTTTTCCATCACATCAACCTGTCATATACACACAATTTTTCGGAGTCACCTAGTGCAG”, the binding signal is 9770 fluorescence intensity (a.u.).

On to “GGAAACCTTAGCCACGGAACGCTCATGACCTCACCAAATTCGGAGTCACCTAGTGCAG”, for which the binding signal was 8500 fluorescence intensity (a.u.).

Turning to “ACATTTATTCCCTCCCTACTGAATACCAGTACCATATATTCGGAGTCACCTAGTGCAG”, the binding signal was 9120 fluorescence intensity (a.u.).

Regarding “TTACATTTTTTTTATCCTGGTCATGACTCGTAATTTAATCCGGAGTCACCTAGTGCAG”, the binding signal is 10300 fluorescence intensity (a.u.).

Take “AAGGACGGTCAAATATTTCAGTTGACCATCGGTAAAACATCGGAGTCACCTAGTGCAG”: the binding signal was 12200 fluorescence intensity (a.u.).

Take “AATCTTCACCGTGTTTATTACTCTCTCTGTTTCTACATAGCGGAGTCACCTAGTGCAG”: the binding signal was 8050 fluorescence intensity (a.u.).

For the sequence “CGCGCCACCACCCCTCCCGCATCTTCCACCTCCGCCTCTACGGAGTCACCTAGTGCAG”, the binding signal is 11100 fluorescence intensity (a.u.).

For “AAACTGTGCACCTAACATTGTGTCTTGCTGACTCCTCTCACGGAGTCACCTAGTGCAG”, the binding signal was 8580 fluorescence intensity (a.u.).

As to “ATCTCAGCCTTAATTTTGCCACAGCTCTGGTAAAAGCTTTCGGAGTCACCTAGTGCAG”, the binding signal was 8700 fluorescence intensity (a.u.).

Consider “GCCTATGCCTGCTGAGTTTCTCACTCCCTAGTCGATCTCCCGGAGTCACCTAGTGCAG”, for which the binding signal was 8140 fluorescence intensity (a.u.).

Turning to “ACAAAGCCAGCCCAGTACACGGTACCACACACAGCTTAATCGGAGTCACCTAGTGCAG”, the binding signal is 8440 fluorescence intensity (a.u.).

For “CCATCTCGCGTTCTCGCGCTCGATTCGAATCCCACCGCAACGGAGTCACCTAGTGCAG”, the binding signal was 9170 fluorescence intensity (a.u.).

Turning to “ATACTCCCTCCGTTTCAAAATGTTTGACACCGTTGACTTTCGGAGTCACCTAGTGCAG”, the binding signal was 12500 fluorescence intensity (a.u.).

Consider “GCTTGACAAGCAACCACGTCGATCGACCGTCCGTCGTCACCGGAGTCACCTAGTGCAG”, for which the binding signal is 8160 fluorescence intensity (a.u.).

In the case of “CGTATTAGGGTCTAGTTGGTTTTTCTTTGAAATATAATTTCGGAGTCACCTAGTGCAG”, the binding signal is 8110 fluorescence intensity (a.u.).

Regarding “GTGGGTTTTTTTTTTTGGTTTGTTTCTTCCTCTGGCCATTCGGAGTCACCTAGTGCAG”, the binding signal was 19800 fluorescence intensity (a.u.).

Consider “TAACATCTCTATTGGGGCATCTTCATGTGGTGAAATTTTACGGAGTCACCTAGTGCAG”, for which the binding signal was 10000 fluorescence intensity (a.u.).

Regarding “CTGGCTACAAATATGTAGTCCGCTGCTCTTCTCTTTTCTCCGGAGTCACCTAGTGCAG”, the binding signal is 8700 fluorescence intensity (a.u.).

Regarding “GCCTCGCCGCCTTCCACCTCTCTCTCTCTACAAATCTCTCCGGAGTCACCTAGTGCAG”, the binding signal is 9190 fluorescence intensity (a.u.).

In the case of “GACTCGCCACCCCACCATCACCACCCAACCCAACCCAACCCGGAGTCACCTAGTGCAG”, the binding signal is 13200 fluorescence intensity (a.u.).
